# Laboratory results as given in paper doi:10.1101/2025.02.27.640518.
# B1: YFP-eIF(iso)4E (Arabidopsis) (protein, UniProt O04663 1-198)
# chain: MATDDVNEPLPAAAELPATEAEKQPHKLERKWSFWFDNQSKKGAAWGASLRKAYTFDTVEDFWGLHETIFQTSKLTANAEIHLFKAGVEPKWEDPECANGGKWTWVVTANRKEALDKGWLETLMALIGEQFDEADEICGVVASVRPQSKQDKLSLWTRTKSNEAVLMGIGKKWKEILDVTDKITFNNHDDSRRSRFTV
# B2: YFP-eIF(iso)4E^W92L/K149E (Arabidopsis) (protein, UniProt O04663 1-198)
# chain: B1 chain with W92L, K149E
# Assays:
# [1] = biological target: T1, Arabidopsis eIF(iso)4E (yeast two-hybrid fusion) (Arabidopsis) (UniProt O04663); assay: two-hybrid
# T1 sequence: B1 chain
# [2] = biological target: TuMV 6xHis-VPg-6xHIS-3xFLAG (turnip mosaic virus (TuMV)); assay: co-IP
Molecule,binding [1],binding [2]
TuMV VPg (yeast two-hybrid fusion) (turnip mosaic virus (TuMV)),binds,–
B1,–,binds
B2,–,no binding

# Positions count from the first letter of the chain named. Numbers in names are those of the source. No constants are given. Whether binding was seen depends on the method and setting. Binding calls can cover weak binding; strength is not graded here. Where a sequence is shown, tags or fusion partners need not be part of it. For part of these data: In cells and extracts the contact can be indirect.
